Values from PubChem BioAssay AID1259425 (University of Nebraska Medical Center, 2018)

Screen: 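Find knockdowns that reproduce the gene expression pattern seen when KSR1 is lost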 (primary screen)
Cell system: HCT116 human colon cancer cells
Knock-down reagent: siRNA pool against human genes, 50 nM siRNA
Detection: 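After 50 nM siRNA pool, branched-DNA assay measures six marker transcripts per well, minus blank, normalised to the geometric mean of two housekeeping transcripts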
Scale: BNIP3L mRNA: higher = more BNIP3L transcript after knockdown; NDRG1 mRNA: higher = more NDRG1 transcript after knockdown
The deposit covers about 14,000 reagents; below is a random part of them. Not all columns of the deposit are shown. The record does not give: the time to read-out.

AKT3 [SID363996368] gave BNIP3L mRNA, set 1 = 0.104; NDRG1 mRNA, set 1 = 0.376.
After knock-down of NABP1 [SID364002580], the screen gave BNIP3L mRNA, set 1 = 0.144; NDRG1 mRNA, set 1 = 1.04.
After knock-down of GABRA5 [SID363992100] the results were BNIP3L mRNA, set 1 = 0.0986; NDRG1 mRNA, set 1 = 0.232.
Knock-down of IFNGR2 [SID363996434] gave: BNIP3L mRNA, set 1 = 0.0714; NDRG1 mRNA, set 1 = 0.122.
After knock-down of UGGT2 [SID364001485], the screen gave BNIP3L mRNA, set 1 = 0.163; NDRG1 mRNA, set 1 = 0.0728.
Against HEBP2 [SID363998750], the values are BNIP3L mRNA, set 1 = 0.129; NDRG1 mRNA, set 1 = 0.0973.
Knock-down of KLHL9 [SID364001220] came out at: BNIP3L mRNA, set 1 = 0.0339; NDRG1 mRNA, set 1 = 0.117.
Against ULBP2 [SID364003321] the deposit lists BNIP3L mRNA, set 1 = 0.136; NDRG1 mRNA, set 1 = 0.365.
Depletion of ACTR6 [SID364002481] resulted in: BNIP3L mRNA, set 1 = 0.182; NDRG1 mRNA, set 1 = 1.14.
With knock-down of PGK1 [SID363991623] the results were BNIP3L mRNA, set 1 = 0.153; NDRG1 mRNA, set 1 = 0.0756.
Knock-down of BAIAP3 [SID363994989] came out at: BNIP3L mRNA, set 1 = 0.0819; NDRG1 mRNA, set 1 = 0.0995.
Against OR12D3 [SID364003526], the values are BNIP3L mRNA, set 1 = 0.129; NDRG1 mRNA, set 1 = 0.286.
